Experimental data as given in paper doi:10.1101/2023.01.30.526213.
No constants are given. Whether binding was seen depends on the method and setting. In cells and extracts the contact can be indirect. Some results given as binding are weak or reduced against the parent protein; the word gives no strength.

The chains behind the UniProt entries cited, without tags or fusion partners.
UniProt Q96RU2, whole entry: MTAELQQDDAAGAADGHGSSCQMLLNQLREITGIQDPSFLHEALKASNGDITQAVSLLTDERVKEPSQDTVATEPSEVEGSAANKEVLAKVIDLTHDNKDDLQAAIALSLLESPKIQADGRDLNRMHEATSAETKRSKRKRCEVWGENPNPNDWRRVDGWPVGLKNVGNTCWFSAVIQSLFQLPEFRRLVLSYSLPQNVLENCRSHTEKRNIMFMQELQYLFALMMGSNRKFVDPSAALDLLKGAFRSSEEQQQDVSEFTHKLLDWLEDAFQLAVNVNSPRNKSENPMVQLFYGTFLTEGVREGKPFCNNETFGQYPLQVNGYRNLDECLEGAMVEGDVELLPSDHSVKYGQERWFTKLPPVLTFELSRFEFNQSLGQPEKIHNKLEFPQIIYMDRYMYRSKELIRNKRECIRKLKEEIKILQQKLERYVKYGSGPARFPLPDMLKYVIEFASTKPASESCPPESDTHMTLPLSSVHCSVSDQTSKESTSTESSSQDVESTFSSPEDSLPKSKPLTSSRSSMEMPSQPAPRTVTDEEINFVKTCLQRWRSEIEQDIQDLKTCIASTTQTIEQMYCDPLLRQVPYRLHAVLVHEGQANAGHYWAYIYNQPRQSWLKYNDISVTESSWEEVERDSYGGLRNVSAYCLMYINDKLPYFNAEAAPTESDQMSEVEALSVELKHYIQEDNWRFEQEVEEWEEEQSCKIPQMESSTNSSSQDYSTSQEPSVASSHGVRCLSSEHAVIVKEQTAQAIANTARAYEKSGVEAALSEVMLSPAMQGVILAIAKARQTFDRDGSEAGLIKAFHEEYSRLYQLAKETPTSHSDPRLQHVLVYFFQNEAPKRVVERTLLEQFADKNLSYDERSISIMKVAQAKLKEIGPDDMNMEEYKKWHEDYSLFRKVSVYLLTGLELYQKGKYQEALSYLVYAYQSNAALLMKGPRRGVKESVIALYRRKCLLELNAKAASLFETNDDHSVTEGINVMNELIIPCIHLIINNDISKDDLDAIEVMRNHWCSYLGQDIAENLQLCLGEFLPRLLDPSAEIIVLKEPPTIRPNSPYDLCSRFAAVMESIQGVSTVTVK

Biological target: full length Flag-tagged USP28 (human) (UniProt Q96RU2)
Test: co-IP

HA-tagged DTX3L D1-D3 domains (A2-A516) (from UniProt Q8TDB6 2-516) (domain or fragment)
binding: binds
